This is an account of results in doi:10.1101/332015 (bioRxiv, 2018).

For assay [1], the target named is T1, ARC_(207-277) (human, UniProt Q7LC44 207-277).
T1 sequence (looked up): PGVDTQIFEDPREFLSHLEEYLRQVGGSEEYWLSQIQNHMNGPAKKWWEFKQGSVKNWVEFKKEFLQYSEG
Kind of assay: SEC-SAXS.

The target of assay [2] is T1, ARC_(207-277). In words: SEC-MALS.
Assay [3] concerns the target T2, ARC_(206-361) (human, UniProt Q7LC44 206-361).
T2 sequence (looked up): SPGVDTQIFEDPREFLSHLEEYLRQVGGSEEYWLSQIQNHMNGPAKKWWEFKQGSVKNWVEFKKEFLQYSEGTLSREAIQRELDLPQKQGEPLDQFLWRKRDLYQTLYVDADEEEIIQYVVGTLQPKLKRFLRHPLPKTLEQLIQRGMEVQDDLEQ
Kind of assay: SEC-SAXS.

Assay [4] concerns the target T2, ARC_(206-361). Kind of assay: SEC-MALS.
In assay [5] the target is T3, ARC_(206-396) (human, UniProt Q7LC44 206-396).
T3 sequence (looked up): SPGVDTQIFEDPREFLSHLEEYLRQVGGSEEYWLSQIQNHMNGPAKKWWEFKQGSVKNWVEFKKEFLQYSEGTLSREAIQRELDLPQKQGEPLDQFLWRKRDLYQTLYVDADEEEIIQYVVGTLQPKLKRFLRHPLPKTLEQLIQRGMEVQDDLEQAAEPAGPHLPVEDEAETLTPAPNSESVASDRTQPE
In words: SEC-SAXS.

The target of assay [6] is T3, ARC_(206-396). Kind of assay: SEC-MALS.
In assay [7] the target is ARC_(277-370) (human) (UniProt Q7LC44). In words: SEC-SAXS.
Assay [8] has the same target. In words: SEC-MALS.
Assay [9] concerns the target T4, ARC_(131-396) (human, UniProt Q7LC44 131-396).
T4 sequence (looked up): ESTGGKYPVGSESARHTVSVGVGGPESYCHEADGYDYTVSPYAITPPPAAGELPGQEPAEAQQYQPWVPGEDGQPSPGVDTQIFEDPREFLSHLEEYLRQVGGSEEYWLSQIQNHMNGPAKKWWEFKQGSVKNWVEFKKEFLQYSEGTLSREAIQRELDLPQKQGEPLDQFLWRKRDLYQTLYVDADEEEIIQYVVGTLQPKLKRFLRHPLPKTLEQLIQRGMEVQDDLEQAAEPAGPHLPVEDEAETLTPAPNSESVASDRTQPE
Kind of assay: SEC-SAXS.

The target of assay [10] is T4, ARC_(131-396). Kind of assay: SEC-MALS.
The target in assay [11] is T5, ARC_(170-396) (human, UniProt Q7LC44 170-396).
T5 sequence (looked up): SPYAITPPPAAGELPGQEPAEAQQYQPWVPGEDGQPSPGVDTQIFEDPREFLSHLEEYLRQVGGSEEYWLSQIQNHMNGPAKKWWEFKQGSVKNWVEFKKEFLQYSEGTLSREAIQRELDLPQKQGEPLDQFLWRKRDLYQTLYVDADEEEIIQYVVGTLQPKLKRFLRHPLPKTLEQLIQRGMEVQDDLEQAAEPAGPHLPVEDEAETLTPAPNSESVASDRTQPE
Kind of assay: SEC-SAXS.

In assay [12] the target is T5, ARC_(170-396). Kind of assay: SEC-MALS.

Results are given in words; binding and its absence hold for the method and conditions named.

B1: ARC_(207-277) (domain or fragment, UniProt Q7LC44 207-277)
chain: PGVDTQIFEDPREFLSHLEEYLRQVGGSEEYWLSQIQNHMNGPAKKWWEFKQGSVKNWVEFKKEFLQYSEG
For B1, the binding entry in assay [1] and in assay [2] was “no binding” throughout.

B2: ARC_(206-361) (domain or fragment, UniProt Q7LC44 206-361)
chain: SPGVDTQIFEDPREFLSHLEEYLRQVGGSEEYWLSQIQNHMNGPAKKWWEFKQGSVKNWVEFKKEFLQYSEGTLSREAIQRELDLPQKQGEPLDQFLWRKRDLYQTLYVDADEEEIIQYVVGTLQPKLKRFLRHPLPKTLEQLIQRGMEVQDDLEQ
As to B2, the binding result in assay [3] and in assay [4] was “no binding” throughout.

B3: ARC_(206-396) (domain or fragment, UniProt Q7LC44 206-396)
chain: SPGVDTQIFEDPREFLSHLEEYLRQVGGSEEYWLSQIQNHMNGPAKKWWEFKQGSVKNWVEFKKEFLQYSEGTLSREAIQRELDLPQKQGEPLDQFLWRKRDLYQTLYVDADEEEIIQYVVGTLQPKLKRFLRHPLPKTLEQLIQRGMEVQDDLEQAAEPAGPHLPVEDEAETLTPAPNSESVASDRTQPE
As for B3, the binding result in assay [5] and in [6] was “no binding” each time.

B4: ARC_(277-370) (domain or fragment, UniProt Q7LC44 277-370)
chain: GTLSREAIQRELDLPQKQGEPLDQFLWRKRDLYQTLYVDADEEEIIQYVVGTLQPKLKRFLRHPLPKTLEQLIQRGMEVQDDLEQAAEPAGPHL
As for B4, the binding result in assay [7] and in assay [8] was “no binding” throughout.

B5: ARC_(131-396) (domain or fragment, UniProt Q7LC44 131-396)
chain: ESTGGKYPVGSESARHTVSVGVGGPESYCHEADGYDYTVSPYAITPPPAAGELPGQEPAEAQQYQPWVPGEDGQPSPGVDTQIFEDPREFLSHLEEYLRQVGGSEEYWLSQIQNHMNGPAKKWWEFKQGSVKNWVEFKKEFLQYSEGTLSREAIQRELDLPQKQGEPLDQFLWRKRDLYQTLYVDADEEEIIQYVVGTLQPKLKRFLRHPLPKTLEQLIQRGMEVQDDLEQAAEPAGPHLPVEDEAETLTPAPNSESVASDRTQPE
Take B5: the binding entry in assay [9] and in assay [10] was “no binding” each time.

B6: ARC_(170-396) (domain or fragment, UniProt Q7LC44 170-396)
chain: SPYAITPPPAAGELPGQEPAEAQQYQPWVPGEDGQPSPGVDTQIFEDPREFLSHLEEYLRQVGGSEEYWLSQIQNHMNGPAKKWWEFKQGSVKNWVEFKKEFLQYSEGTLSREAIQRELDLPQKQGEPLDQFLWRKRDLYQTLYVDADEEEIIQYVVGTLQPKLKRFLRHPLPKTLEQLIQRGMEVQDDLEQAAEPAGPHLPVEDEAETLTPAPNSESVASDRTQPE
Consider B6, for which the binding result in [11] and in [12] was “no binding” throughout.
